Reference: US12419952B2, “Saponin conjugate and vaccine or pharmaceutical composition comprising the same” (priority 2019, dated 2025)
Some entries share one result that the patent states for a list of compounds.

Legend:
[1] = tested on: E7 protein-specific IgG antibodies; test: ELISA of serum PEK (coating with E7)-specific IgG antibody after each dose; type: in vivo, C57BL/6 mice; details: adjuvant with PEK
[2] = tested on: cellular immunity to PEK antigen; test: Immunological evaluation of saponins in the PEK mouse-vaccination model (overall conclusion); type: in vivo, C57BL/6 mice; details: vaccination with PEK; overall immunological analysis

Structure (SMILES)	E7-specific IgG antibody production [1]	saponins-based adjuvant activity to develop cellular immunity to the host [2]
COc1ccc(CCCCCCCCNC(=O)C2O[C@@H](O[C@H]3CCC4(C)C(CCC5(C)C4CC=C4C6CC(C)(C)CC[C@]6(C(=O)O[C@@H]6OC(C)[C@H](O)C(O)C6O[C@@H]6OC(C)[C@H](O[C@@H]7OC[C@@H](O)C(O)C7O)C(O)C6O)C(O)CC45C)C3(C)C=O)C(O)C(O)[C@@H]2O)cc1 (stereo partly drawn) [Compound 53, 3-O—(N-(8-(4-Methoxyphenyl)octyl)-β-D-glucopyranosyluronamide)-28-O-(β-D-xylopyranosyl-(1→4)-α-L-rhamnopyranosyl-(1→2)-β-D-fucopyranosyl) quillaic ester]	moderate	potent saponins-based adjuvant
CC1O[C@@H](OC(=O)[C@]23CCC(C)(C)CC2C2=CCC4C5(C)CC[C@H](O[C@@H]6OC(C(=O)NCCCCCCCCc7ccc(F)cc7)[C@@H](O)C(O)C6O)C(C)(C=O)C5CCC4(C)C2(C)CC3O)C(O[C@@H]2OC(C)[C@H](O[C@@H]3OC[C@@H](O)C(O)C3O)C(O)C2O)C(O)[C@H]1O (stereo partly drawn) [Compound 54, 3-O—(N-(8-(4-Fluorophenyl)octyl)-β-D-glucopyranosyluronamide)-28-O-(β-D-xylopyranosyl-(1→4)-α-L-rhamnopyranosyl-(1→2)-β-D-fucopyranosyl) quillaic ester]	moderate	potent saponins-based adjuvant
CC1O[C@@H](OC(=O)[C@]23CCC(C)(C)CC2C2=CCC4C5(C)CC[C@H](O[C@@H]6OC(C(=O)NCCCCCCCCc7ccc(C(C)(C)C)cc7)[C@@H](O)C(O)C6O)C(C)(C=O)C5CCC4(C)C2(C)CC3O)C(O[C@@H]2OC(C)[C@H](O[C@@H]3OC[C@@H](O)C(O)C3O)C(O)C2O)C(O)[C@H]1O (stereo partly drawn) [Compound 55, 3-O—(N-(8-(4-Fluorophenyl)octyl)-β-D-glucopyranosyluronamide)-28-O-(β-D-xylopyranosyl-(1→4)-α-L-rhamnopyranosyl-(1→2)-β-D-fucopyranosyl) quillaic ester]	moderate	potent saponins-based adjuvant
COc1ccc(CCCCCCCCNC(=O)C2O[C@@H](O[C@H]3CCC4(C)C(CCC5(C)C4CC=C4C6CC(C)(C)CC[C@]6(C(=O)O[C@@H]6OC(C)[C@H](O)C(O)C6O[C@@H]6OC(C)[C@H](O[C@@H]7OC[C@@H](O)C(O)C7O)C(O)C6O)C(O)C[C@]45C)C3(C)C=O)C(O[C@@H]3OC(CO)[C@H](O)C(O)C3O)C(O[C@@H]3OC[C@@H](O)C(O)C3O)[C@@H]2O)cc1 (stereo partly drawn) [Compound 92, 3-O—{β-D-galactopyranosyl-(1→2)-[β-D-xylopyranosyl-(1→3)]-[N-(8-(4-methoxyphenyl)octyl)-β-D-glucuropyranosyluroamide]}-28-O-[β-D-xylopyranosyl-(1→4)-α-L-rhamnopyranosyl-(1→2)-β-D-fucopyranosyl]quillaic ester]		potent saponins-based adjuvant
CC1O[C@@H](OC(=O)[C@]23CCC(C)(C)CC2C2=CCC4C5(C)CC[C@H](O[C@@H]6OC(C(=O)Nc7ccc(Oc8ccccc8)cc7)[C@@H](O)C(O)C6O)C(C)(C=O)C5CCC4(C)C2(C)CC3O)C(O[C@@H]2OC(C)[C@H](O[C@@H]3OC[C@@H](O)C(O)C3O)C(O)C2O)C(O)[C@H]1O (stereo partly drawn) [Compound 57, 3-O—(N-(4-phenoxyphen-1-yl)-β-D-glucopyranosyluronamide)-28-O-(β-D-xylopyranosyl-(1→4)-α-L-rhamnopyranosyl-(1→2)-β-D-fucopyranosyl) quillaic ester]		potent saponins-based adjuvant
CC1O[C@@H](OC(=O)[C@]23CCC(C)(C)CC2C2=CCC4C5(C)CC[C@H](O[C@@H]6OC(C(=O)NCCCCCCCCc7ccc(Oc8ccccc8)cc7)[C@@H](O)C(O)C6O)C(C)(C=O)C5CCC4(C)C2(C)CC3O)C(O[C@@H]2OC(C)[C@H](O[C@@H]3OC[C@@H](O)C(O)C3O)C(O)C2O)C(O)[C@H]1O (stereo partly drawn) [Compound 56, 3-O—(N-(8-(4-Phenoxyhenyl)octyl)-β-D-glucopyranosyluronamide)-28-O-(β-D-xylopyranosyl-(1→4)-α-L-rhamnopyranosyl-(1→2)-β-D-fucopyranosyl) quillaic ester]	moderate	potent saponins-based adjuvant
CNC(=O)C1O[C@@H](O[C@H]2CCC3(C)C(CCC4(C)C3CC=C3C5CC(C)(C)CC[C@]5(C(=O)O[C@@H]5OC(C)[C@H](O)C(O)C5O[C@@H]5OC(C)[C@H](OC6OC[C@@H](O)C(O)C6O)C(O)C5O)C(O)CC34C)C2(C)C=O)C(O)C(O)[C@@H]1O (stereo partly drawn) [Compound 47, 3-O—(N-(Methyl)-β-D-glucopyranosyluronamide)-28-β-(β-D-xylopyranosyl-(1→4)-α-L-rhamnopyranosyl-(1→2)-β-D-fucopyranosyl) quillaic ester]		potent saponins-based adjuvant
CC1(C)CC[C@]2(C(=O)O)C(O)C[C@]3(C)C(=CCC4C5(C)CC[C@H](O[C@@H]6OC(C(=O)NCCCCCCCCc7ccc(Oc8ccccc8)cc7)[C@@H](O)C(O[C@@H]7OC[C@@H](O)C(O)C7O)C6O[C@@H]6OC(CO)[C@H](O)C(O)C6O)C(C)(C=O)C5CCC43C)C2C1 (stereo partly drawn) [Compound 83, 3-O—(N-(8-(4-phenoxyphenyl)octyl)-β-D-galactopyranosyl-(1→2)-(β-D-xylopyranosyl-(1-3))-β-D-glucopyranosyluroamide)-quillaic acid]		potent saponins-based adjuvant
CC1O[C@@H](OC(=O)[C@]23CCC(C)(C)CC2C2=CCC4C5(C)CC[C@H](O[C@@H]6OC(C(=O)NCCc7ccc(Oc8ccccc8)cc7)[C@@H](O)C(O)C6O)C(C)(C=O)C5CCC4(C)C2(C)CC3O)C(O[C@@H]2OC(C)[C@H](O[C@@H]3OC[C@@H](O)C(O)C3O)C(O)C2O)C(O)[C@H]1O (stereo partly drawn) [Compound 58, 3-O—(N-(2-(4-phenoxyphen-1-yl)ethyl)-β-D-glucopyranosyluronamide)-28-O-(β-D-xylopyranosyl-(1→4)-α-L-rhamnopyranosyl-(1→2)-β-D-fucopyranosyl) quillaic ester]		potent saponins-based adjuvant
CCCCCCCCCCCCNC(=O)C1O[C@@H](O[C@H]2CCC3(C)C(CCC4(C)C3CC=C3C5CC(C)(C)CC[C@]5(C(=O)O[C@@H]5OC(C)[C@H](O)C(O)C5O[C@@H]5OC(C)[C@H](O[C@@H]6OC[C@@H](O)C(O)C6O)C(O)C5O)C(O)CC34C)C2(C)C=O)C(O)C(O)[C@@H]1O (stereo partly shown) [Compound 46]		potent saponins-based adjuvant
CCCCCCCCCCCCCCCCCCNC(=O)C1O[C@@H](O[C@H]2CCC3(C)C(CCC4(C)C3CC=C3C5CC(C)(C)CC[C@]5(C(=O)O[C@@H]5OC(C)[C@H](O)C(O)C5O[C@@H]5OC(C)[C@H](O[C@@H]6OC[C@@H](O)C(O)C6O)C(O)C5O)C(O)CC34C)C2(C)C=O)C(O)C(O)[C@@H]1O (stereo partly drawn) [Compound 49, 3-O—(N-(Octadecyl)-β-D-glucopyranosyluronamide)-28-O-(β-D-xylopyranosyl-(1→4)-α-L-rhamnopyranosyl-(1→2)-β-D-fucopyranosyl) quillaic ester]		potent saponins-based adjuvant
CC1O[C@@H](OC(=O)[C@]23CCC(C)(C)CC2C2=CCC4C5(C)CC[C@H](O[C@@H]6OC(C(=O)NCCCCCCCCc7ccc(N8CCOCC8)cc7)[C@@H](O)C(O)C6O)C(C)(C=O)C5CCC4(C)[C@]2(C)CC3O)C(O[C@@H]2OC(C)[C@H](O[C@@H]3OC[C@@H](O)C(O)C3O)C(O)C2O)C(O)[C@H]1O (stereo partly drawn) [Compound 62, 3-O—(N-(8-(4-morpholinophen-1-yl)octyl)-β-D-glucopyranosyluronamide)-28-O-(β-D-xylopyranosyl-(1→4)-α-L-rhamnopyranosyl-(1-2)-β-D-fucopyranosyl) quillaic ester]		potent saponins-based adjuvant
